Data published in the supplement of paper PMC12823440, “Inhibitors supercharge kinase turnover through native proteolytic circuits” (Nature, 2025).
This is one part of the list. The calls rarely recur for the same compound in another form.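 Kinases were expressed as nanoluciferase fusions in K562 cells and luminescence was read every 4 h between 2 and 18 h as percent of control, DMSO set to 100% and a positive control to 0%. A time point counts as decreased when the signal drops significantly (2 sigma). The hit call is the authors' own, does not follow from the count of time points alone, and its rule is not shown.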

Protein sequences, listed by entry. Tags and fused reporters are not part of them. Lines headed by an entry give the natural chain unless they say otherwise; changes in a name come on top.
UniProt P11362, whole entry, looked up: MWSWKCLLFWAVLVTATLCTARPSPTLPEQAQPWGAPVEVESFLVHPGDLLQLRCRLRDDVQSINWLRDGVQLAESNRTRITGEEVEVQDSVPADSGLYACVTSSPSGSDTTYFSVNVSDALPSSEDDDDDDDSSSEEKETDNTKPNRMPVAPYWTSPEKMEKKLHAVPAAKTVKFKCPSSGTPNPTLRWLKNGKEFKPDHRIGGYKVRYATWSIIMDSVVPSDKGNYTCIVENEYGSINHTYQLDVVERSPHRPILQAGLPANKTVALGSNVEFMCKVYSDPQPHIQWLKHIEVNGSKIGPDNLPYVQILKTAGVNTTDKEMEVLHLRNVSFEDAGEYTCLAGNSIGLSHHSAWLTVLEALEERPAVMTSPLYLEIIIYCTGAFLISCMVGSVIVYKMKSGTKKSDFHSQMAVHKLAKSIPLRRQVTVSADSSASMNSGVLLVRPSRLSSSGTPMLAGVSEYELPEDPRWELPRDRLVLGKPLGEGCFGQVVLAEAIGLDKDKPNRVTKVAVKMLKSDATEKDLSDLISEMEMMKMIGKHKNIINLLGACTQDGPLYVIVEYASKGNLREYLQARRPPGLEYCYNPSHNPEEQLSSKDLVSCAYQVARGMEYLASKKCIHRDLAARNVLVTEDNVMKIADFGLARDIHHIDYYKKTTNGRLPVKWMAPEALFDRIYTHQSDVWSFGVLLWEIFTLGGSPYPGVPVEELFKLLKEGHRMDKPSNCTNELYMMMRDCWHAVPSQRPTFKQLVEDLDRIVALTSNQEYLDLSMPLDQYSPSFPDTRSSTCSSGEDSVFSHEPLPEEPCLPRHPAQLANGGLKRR
UniProt P21802, whole entry, looked up: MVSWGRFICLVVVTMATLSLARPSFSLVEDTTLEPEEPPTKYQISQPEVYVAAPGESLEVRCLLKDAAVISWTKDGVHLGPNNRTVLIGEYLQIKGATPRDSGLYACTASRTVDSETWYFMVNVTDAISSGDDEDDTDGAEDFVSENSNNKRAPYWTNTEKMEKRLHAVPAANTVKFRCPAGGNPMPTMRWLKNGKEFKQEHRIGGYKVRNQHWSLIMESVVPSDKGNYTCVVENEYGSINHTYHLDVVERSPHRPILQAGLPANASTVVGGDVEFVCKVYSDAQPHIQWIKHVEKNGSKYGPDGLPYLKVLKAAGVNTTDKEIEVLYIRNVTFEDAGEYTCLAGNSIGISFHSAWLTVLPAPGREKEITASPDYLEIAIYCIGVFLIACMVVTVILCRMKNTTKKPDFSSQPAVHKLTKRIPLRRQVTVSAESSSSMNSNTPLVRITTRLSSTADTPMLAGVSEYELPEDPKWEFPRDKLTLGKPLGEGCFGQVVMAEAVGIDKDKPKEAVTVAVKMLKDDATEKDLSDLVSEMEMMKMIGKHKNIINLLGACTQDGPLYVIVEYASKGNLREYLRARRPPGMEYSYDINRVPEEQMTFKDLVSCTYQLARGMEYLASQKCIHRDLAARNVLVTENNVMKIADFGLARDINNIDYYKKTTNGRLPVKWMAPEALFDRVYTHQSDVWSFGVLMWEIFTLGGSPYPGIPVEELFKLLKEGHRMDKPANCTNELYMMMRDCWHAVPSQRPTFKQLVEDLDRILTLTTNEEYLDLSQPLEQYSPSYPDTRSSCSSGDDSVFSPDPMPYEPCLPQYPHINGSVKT
UniProt P36888, whole entry: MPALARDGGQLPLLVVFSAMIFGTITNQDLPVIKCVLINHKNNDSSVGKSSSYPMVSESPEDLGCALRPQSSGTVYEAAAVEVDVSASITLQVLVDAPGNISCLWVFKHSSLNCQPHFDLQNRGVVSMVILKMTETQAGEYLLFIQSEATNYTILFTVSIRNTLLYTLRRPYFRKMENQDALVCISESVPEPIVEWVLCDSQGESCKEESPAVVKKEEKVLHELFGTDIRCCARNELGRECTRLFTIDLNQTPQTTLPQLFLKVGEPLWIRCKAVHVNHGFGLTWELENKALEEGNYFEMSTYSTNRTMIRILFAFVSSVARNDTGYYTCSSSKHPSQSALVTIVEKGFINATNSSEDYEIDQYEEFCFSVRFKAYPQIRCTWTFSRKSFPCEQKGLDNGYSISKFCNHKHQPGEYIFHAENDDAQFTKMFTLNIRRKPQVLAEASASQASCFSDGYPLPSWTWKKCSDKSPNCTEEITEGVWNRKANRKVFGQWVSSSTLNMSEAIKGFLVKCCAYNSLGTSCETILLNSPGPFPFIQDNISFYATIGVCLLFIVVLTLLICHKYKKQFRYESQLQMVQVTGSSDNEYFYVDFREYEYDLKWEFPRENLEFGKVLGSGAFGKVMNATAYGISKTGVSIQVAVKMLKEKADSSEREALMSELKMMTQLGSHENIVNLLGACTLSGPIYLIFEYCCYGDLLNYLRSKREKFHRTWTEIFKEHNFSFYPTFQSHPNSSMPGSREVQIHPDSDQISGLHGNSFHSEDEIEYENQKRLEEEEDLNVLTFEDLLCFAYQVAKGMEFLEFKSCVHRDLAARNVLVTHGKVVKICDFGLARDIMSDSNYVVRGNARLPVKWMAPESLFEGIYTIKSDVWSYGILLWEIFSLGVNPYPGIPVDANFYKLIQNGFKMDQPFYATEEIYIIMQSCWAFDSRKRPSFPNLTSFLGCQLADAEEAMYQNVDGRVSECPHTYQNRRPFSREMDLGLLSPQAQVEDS
UniProt P06241, whole entry, looked up: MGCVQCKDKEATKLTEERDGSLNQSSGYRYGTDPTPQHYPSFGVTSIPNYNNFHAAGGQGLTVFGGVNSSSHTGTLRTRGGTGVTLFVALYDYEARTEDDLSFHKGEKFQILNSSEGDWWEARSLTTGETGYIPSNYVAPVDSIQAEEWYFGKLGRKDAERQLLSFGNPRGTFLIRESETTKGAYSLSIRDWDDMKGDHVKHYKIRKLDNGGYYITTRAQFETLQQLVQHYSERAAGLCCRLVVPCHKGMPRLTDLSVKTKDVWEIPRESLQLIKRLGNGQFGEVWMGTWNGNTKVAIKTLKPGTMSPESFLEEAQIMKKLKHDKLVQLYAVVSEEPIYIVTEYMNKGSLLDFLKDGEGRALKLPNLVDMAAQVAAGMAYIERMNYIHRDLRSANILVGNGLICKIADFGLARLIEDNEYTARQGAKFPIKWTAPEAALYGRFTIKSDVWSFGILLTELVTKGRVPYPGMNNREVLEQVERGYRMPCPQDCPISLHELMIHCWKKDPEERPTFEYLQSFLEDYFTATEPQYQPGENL
UniProt P49840: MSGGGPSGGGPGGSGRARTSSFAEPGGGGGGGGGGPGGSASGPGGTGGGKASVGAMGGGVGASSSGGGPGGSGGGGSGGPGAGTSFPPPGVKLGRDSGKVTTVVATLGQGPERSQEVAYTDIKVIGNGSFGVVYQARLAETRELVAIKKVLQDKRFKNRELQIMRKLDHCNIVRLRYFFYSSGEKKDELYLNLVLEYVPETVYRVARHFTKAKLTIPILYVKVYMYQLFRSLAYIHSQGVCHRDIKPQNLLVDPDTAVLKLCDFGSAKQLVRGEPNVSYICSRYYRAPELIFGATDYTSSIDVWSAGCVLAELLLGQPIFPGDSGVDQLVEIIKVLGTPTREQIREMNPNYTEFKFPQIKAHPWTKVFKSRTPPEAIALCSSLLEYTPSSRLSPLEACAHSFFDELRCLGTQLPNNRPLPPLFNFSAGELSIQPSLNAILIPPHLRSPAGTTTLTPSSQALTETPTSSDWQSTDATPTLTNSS
UniProt P14616: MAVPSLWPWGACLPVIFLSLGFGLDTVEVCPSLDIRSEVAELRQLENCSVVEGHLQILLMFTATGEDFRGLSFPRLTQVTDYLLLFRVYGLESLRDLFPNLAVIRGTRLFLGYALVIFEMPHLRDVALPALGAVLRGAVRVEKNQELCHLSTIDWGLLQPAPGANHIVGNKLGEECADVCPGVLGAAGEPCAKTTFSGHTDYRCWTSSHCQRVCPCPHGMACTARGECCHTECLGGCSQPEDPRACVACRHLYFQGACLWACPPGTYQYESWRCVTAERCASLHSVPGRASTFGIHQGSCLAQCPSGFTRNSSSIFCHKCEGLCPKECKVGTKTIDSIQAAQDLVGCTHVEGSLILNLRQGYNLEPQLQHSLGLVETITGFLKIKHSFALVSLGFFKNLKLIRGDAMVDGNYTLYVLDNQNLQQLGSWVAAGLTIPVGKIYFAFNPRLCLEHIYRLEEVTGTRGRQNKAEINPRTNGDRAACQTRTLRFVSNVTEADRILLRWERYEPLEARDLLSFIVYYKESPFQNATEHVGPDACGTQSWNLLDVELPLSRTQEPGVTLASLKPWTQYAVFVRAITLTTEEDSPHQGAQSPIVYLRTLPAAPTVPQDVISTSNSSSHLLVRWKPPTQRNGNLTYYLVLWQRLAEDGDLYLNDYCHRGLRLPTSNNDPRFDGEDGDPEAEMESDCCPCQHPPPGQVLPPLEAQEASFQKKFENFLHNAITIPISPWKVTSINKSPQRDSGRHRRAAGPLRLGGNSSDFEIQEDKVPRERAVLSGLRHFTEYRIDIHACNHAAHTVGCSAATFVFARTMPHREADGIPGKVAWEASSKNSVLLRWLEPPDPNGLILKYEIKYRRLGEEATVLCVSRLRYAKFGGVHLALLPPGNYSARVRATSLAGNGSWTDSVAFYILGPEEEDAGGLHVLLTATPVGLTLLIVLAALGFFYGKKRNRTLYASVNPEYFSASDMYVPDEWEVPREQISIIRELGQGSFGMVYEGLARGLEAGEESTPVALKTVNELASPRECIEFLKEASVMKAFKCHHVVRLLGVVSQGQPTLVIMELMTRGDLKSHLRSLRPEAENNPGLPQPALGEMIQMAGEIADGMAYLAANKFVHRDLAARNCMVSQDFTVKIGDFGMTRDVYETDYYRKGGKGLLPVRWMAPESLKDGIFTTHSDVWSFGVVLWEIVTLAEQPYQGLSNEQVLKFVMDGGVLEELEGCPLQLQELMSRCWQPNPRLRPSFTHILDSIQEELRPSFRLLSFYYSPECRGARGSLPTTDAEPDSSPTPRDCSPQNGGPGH
UniProt P06239: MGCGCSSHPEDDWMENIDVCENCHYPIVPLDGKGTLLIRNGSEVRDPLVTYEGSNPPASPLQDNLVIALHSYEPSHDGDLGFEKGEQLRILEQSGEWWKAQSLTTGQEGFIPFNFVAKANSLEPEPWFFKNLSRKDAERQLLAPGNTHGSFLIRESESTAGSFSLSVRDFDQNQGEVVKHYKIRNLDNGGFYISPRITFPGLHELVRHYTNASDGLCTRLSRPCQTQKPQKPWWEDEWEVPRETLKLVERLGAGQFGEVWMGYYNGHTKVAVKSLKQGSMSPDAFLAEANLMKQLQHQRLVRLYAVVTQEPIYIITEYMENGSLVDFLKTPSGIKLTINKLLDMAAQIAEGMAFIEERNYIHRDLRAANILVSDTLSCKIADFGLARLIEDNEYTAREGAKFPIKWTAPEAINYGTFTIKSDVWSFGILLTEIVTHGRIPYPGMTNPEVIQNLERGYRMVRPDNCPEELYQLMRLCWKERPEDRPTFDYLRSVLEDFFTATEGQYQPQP
UniProt P53667: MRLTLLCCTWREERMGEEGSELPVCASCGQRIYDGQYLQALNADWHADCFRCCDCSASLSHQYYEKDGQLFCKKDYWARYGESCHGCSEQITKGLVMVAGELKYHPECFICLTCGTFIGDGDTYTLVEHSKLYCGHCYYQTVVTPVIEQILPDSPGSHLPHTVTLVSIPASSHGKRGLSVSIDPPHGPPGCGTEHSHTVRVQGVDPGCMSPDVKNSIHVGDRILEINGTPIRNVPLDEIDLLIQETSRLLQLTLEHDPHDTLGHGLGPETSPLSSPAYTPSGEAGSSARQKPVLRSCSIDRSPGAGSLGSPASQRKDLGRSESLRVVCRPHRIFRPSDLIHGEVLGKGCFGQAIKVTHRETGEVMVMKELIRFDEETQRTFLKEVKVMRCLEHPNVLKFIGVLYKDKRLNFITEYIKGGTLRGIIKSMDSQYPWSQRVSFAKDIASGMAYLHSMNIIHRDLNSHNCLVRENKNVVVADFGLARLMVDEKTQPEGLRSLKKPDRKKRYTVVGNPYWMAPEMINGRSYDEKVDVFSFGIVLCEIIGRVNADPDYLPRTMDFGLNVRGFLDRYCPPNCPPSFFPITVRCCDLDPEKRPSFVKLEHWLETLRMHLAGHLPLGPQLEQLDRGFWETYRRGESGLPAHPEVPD

Key:
Test in all cases: kinase-Nluc reporter destabilization hit call (1 = scored as downregulated) (binary); higher = compound decreases kinase abundance
Details in all cases: K562; 2-18 h
[1] = biological target: ERN1 (UniProt O75460)
[2] = biological target: FGFR1 (UniProt P11362)
[3] = biological target: FGFR2 (UniProt P21802)
[4] = biological target: FGFR3 (UniProt P22607)
[5] = biological target: FGR (UniProt P09769)
[6] = biological target: FLT3 (UniProt P36888)
[7] = biological target: FYN (UniProt P06241)
[8] = biological target: GSK3A (UniProt P49840)
[9] = biological target: HER2 (UniProt P04626)
[10] = biological target: INSRR (UniProt P14616)
[11] = biological target: IRAK3 (UniProt Q9Y616)
[12] = biological target: JAK1 (UniProt P23458)
[13] = biological target: LCK (UniProt P06239)
[14] = biological target: LIMK1 (UniProt P53667)
[15] = biological target: LIMK2 (UniProt P53671)
[16] = biological target: LMTK2 (UniProt Q8IWU2)
[17] = biological target: LYN (UniProt P07948)
[18] = biological target: MAP2K1 (UniProt Q02750)
[19] = biological target: MAP2K2 (UniProt P36507)
[20] = biological target: MAP4K2 (UniProt Q12851)

Measured: kinase-Nluc reporter destabilization hit call

Cc1cccc([C@@H](CO)NC(=O)[C@@H](C)N2Cc3ccc(-c4nc(NC5CCOCC5)ncc4Cl)cc3C2=O)c1 [ERK1/2 inhibitor 1] (10 µM)
inactive: [1] 0 | [2] 0 | [3] 0 | [4] 0 | [5] 0 | [6] 0 | [7] 0 | [8] 0 | [9] 0 | [10] 0 | [11] 0 | [12] 0 | [13] 0 | [14] 0 | [15] 0 | [16] 0 | [17] 0 | [18] 0 | [19] 0 | [20] 0

CC(C)(C)n1nc(Cc2cccc3ccccc23)c2c(N)ncnc21 (10 µM)
inactive: [1] 0 | [2] 0 | [3] 0 | [4] 0 | [5] 0 | [6] 0 | [7] 0 | [8] 0 | [9] 0 | [10] 0 | [11] 0 | [12] 0 | [14] 0 | [15] 0 | [16] 0 | [17] 0 | [18] 0 | [19] 0 | [20] 0

COc1ccc(Oc2cc(NCCC(F)(F)F)c3ncc(-c4ccc(C(=O)NC5CC5)c(C)c4)n3n2)c(F)c1F (2.5 µM)
inactive: [1] 0 | [2] 0 | [3] 0 | [4] 0 | [5] 0 | [6] 0 | [7] 0 | [8] 0 | [9] 0 | [10] 0 | [11] 0 | [12] 0 | [13] 0 | [14] 0 | [15] 0 | [16] 0 | [17] 0 | [18] 0 | [19] 0 | [20] 0

CC(C)(/C=C(\C#N)C(=O)N1CCC[C@@H](n2nc(-c3ccc(Oc4ccccc4)cc3F)c3c(N)ncnc32)C1)N1CCN(C2COC2)CC1 (2.5 µM)
inactive: [1] 0 | [2] 0 | [3] 0 | [4] 0 | [5] 0 | [6] 0 | [7] 0 | [8] 0 | [9] 0 | [10] 0 | [11] 0 | [12] 0 | [13] 0 | [14] 0 | [15] 0 | [16] 0 | [17] 0 | [18] 0 | [19] 0 | [20] 0

COc1cc(C(=O)NC2CCN(C)CC2)ccc1Nc1ncc2c(n1)N(C1CCCC1)CC(F)(F)C(=O)N2C (10 µM)
inactive: [1] 0 | [2] 0 | [3] 0 | [4] 0 | [5] 0 | [6] 0 | [7] 0 | [8] 0 | [9] 0 | [10] 0 | [11] 0 | [12] 0 | [13] 0 | [14] 0 | [15] 0 | [16] 0 | [17] 0 | [18] 0 | [19] 0 | [20] 0

CNC(=O)c1cccc2cc(Oc3ccnc4cc(OCC5(N)CC5)c(OC)cc34)ccc12 [Lucitanib] (10 µM)
inactive: [1] 0 | [2] 0 | [3] 0 | [4] 0 | [5] 0 | [6] 0 | [7] 0 | [8] 0 | [9] 0 | [10] 0 | [11] 0 | [12] 0 | [13] 0 | [14] 0 | [15] 0 | [16] 0 | [17] 0 | [18] 0 | [19] 0 | [20] 0

Random excerpt: two entries already listed.
CNC(=O)c1cccc2cc(Oc3ccnc4cc(OCC5(N)CC5)c(OC)cc34)ccc12 [Lucitanib] (10 µM)
inactive: [1] 0 | [2] 0 | [3] 0 | [4] 0 | [5] 0 | [6] 0 | [7] 0 | [8] 0 | [9] 0 | [10] 0 | [11] 0 | [12] 0 | [13] 0 | [14] 0 | [15] 0 | [16] 0 | [17] 0 | [18] 0 | [19] 0 | [20] 0

CC(C)(/C=C(\C#N)C(=O)N1CCC[C@@H](n2nc(-c3ccc(Oc4ccccc4)cc3F)c3c(N)ncnc32)C1)N1CCN(C2COC2)CC1 (2.5 µM)
inactive: [1] 0 | [2] 0 | [3] 0 | [4] 0 | [5] 0 | [6] 0 | [7] 0 | [8] 0 | [9] 0 | [10] 0 | [11] 0 | [12] 0 | [13] 0 | [14] 0 | [15] 0 | [16] 0 | [17] 0 | [18] 0 | [19] 0 | [20] 0

Following part:

CC[C@H](CO)Nc1nc(NCc2ccccc2)c2ncn(C(C)C)c2n1 [Seliciclib] (10 µM)
inactive: [1] 0 | [2] 0 | [3] 0 | [4] 0 | [5] 0 | [6] 0 | [7] 0 | [8] 0 | [9] 0 | [10] 0 | [11] 0 | [12] 0 | [13] 0 | [14] 0 | [15] 0 | [16] 0 | [17] 0 | [18] 0 | [19] 0 | [20] 0

Nc1nc(OCC2CCCCC2)c2[nH]cnc2n1 (10 µM)
inactive: [1] 0 | [2] 0 | [3] 0 | [4] 0 | [5] 0 | [6] 0 | [7] 0 | [8] 0 | [9] 0 | [10] 0 | [11] 0 | [12] 0 | [13] 0 | [14] 0 | [15] 0 | [16] 0 | [17] 0 | [18] 0 | [19] 0 | [20] 0

Cn1c(=O)n(-c2ccc(C(C)(C)C#N)cc2)c2c3cc(-c4cnc5ccccc5c4)ccc3ncc21 [Dactolisib (Tosylate)] (10 µM)
inactive: [1] 0 | [2] 0 | [3] 0 | [4] 0 | [5] 0 | [6] 0 | [7] 0 | [8] 0 | [9] 0 | [10] 0 | [11] 0 | [12] 0 | [13] 0 | [14] 0 | [15] 0 | [16] 0 | [17] 0 | [18] 0 | [19] 0 | [20] 0

COc1cc2c(Nc3ccc(Br)cc3F)ncnc2cc1OCCn1ccnn1 (10 µM)
inactive: [1] 0 | [2] 0 | [3] 0 | [4] 0 | [5] 0 | [6] 0 | [7] 0 | [8] 0 | [9] 0 | [10] 0 | [11] 0 | [12] 0 | [13] 0 | [14] 0 | [15] 0 | [16] 0 | [17] 0 | [18] 0 | [19] 0 | [20] 0

CN(C)C(=O)/C(C#N)=C/c1ccc(-c2nc3cnc4[nH]ccc4c3n2C2CCCCC2)o1 (10 µM)
inactive: [1] 0 | [2] 0 | [3] 0 | [4] 0 | [5] 0 | [6] 0 | [7] 0 | [8] 0 | [9] 0 | [10] 0 | [11] 0 | [12] 0 | [13] 0 | [14] 0 | [15] 0 | [16] 0 | [17] 0 | [18] 0 | [19] 0 | [20] 0

Nc1nc(N)c(N=O)c(OCC2CCCCC2)n1 (10 µM)
inactive: [1] 0 | [2] 0 | [3] 0 | [4] 0 | [5] 0 | [6] 0 | [7] 0 | [8] 0 | [9] 0 | [10] 0 | [11] 0 | [12] 0 | [13] 0 | [14] 0 | [15] 0 | [16] 0 | [17] 0 | [18] 0 | [19] 0 | [20] 0

O=C1Nc2ccccc2/C1=C/c1ccc(F)cc1 (10 µM)
inactive: [2] 0 | [3] 0 | [4] 0 | [5] 0 | [6] 0 | [7] 0 | [8] 0 | [9] 0 | [10] 0 | [11] 0 | [12] 0 | [13] 0 | [14] 0 | [15] 0 | [16] 0 | [17] 0 | [18] 0 | [19] 0 | [20] 0
